Reference: PubChem BioAssay AID248 (DTP/NCI, 2004)
The list does not hold the whole screen: it gathers tests that were run many times, whatever their T/C, doses with no T/C, and many T/C values between a quarter and a half above the control. Other doses and runs of a compound stand elsewhere. T/C: endpoint of the treated group in % of that of the vehicle group. Some entries give survivors of the animals treated and no T/C: the source files T/C as zero there, which appears to mark a toxic dose or a test without result, not a measured value. Some doses without a T/C left all or most animals alive at the check, yet need not have been tolerated: survival well below the control is almost never listed, so the zero probably covers shortened survival too. Counts of survivors are from the toxicity check (mostly the fifth day) where no day follows; animals may have died later. Schedule codes are those of the source, read here as Q, the interval in days (D) or hours (H), X, the number of doses. Some doses were run more than once; their values stand side by side, smallest first. Some schedule codes hold Z or #, which are not explained here. For survival time, the PubChem record calls one and a half times the control and up active, and a quarter to a half above the control has no call in these data; cut-offs in other NCI protocols can differ. Some T/C values carry the count of animals alive at the toxicity check (mostly the fifth day); without a count, all were alive then.

Test system: L1210 leukemia ip in BDF1 mice, survival T/C
Test: NCI In Vivo Anticancer Drug Screen. Data for tumor model L1210 Leukemia (intraperitoneal) in B6D2F1 (BDF1) mice
Details: higher T/C = longer survival
[1] = T/C endpoint: mean survival time, dose: 200.0 mg/kg/injection, schedule: Q04DX003 (ip), vehicle: saline with Tween-80
[2] = T/C endpoint: mean survival time, dose: 400.0 mg/kg/injection, schedule: Q01DX009 (ip), vehicle: Klucel (hydroxypropylcellulose) (HPC)
[3] = T/C endpoint: mean survival time, dose: 100.0 mg/kg/injection, schedule: Q01DX009 (ip), vehicle: saline
[4] = T/C endpoint: mean survival time, dose: 400.0 mg/kg/injection, schedule: Q01DX009 (ip), vehicle: saline with Tween-80
[5] = T/C endpoint: mean survival time, dose: 200.0 mg/kg/injection, schedule: Q01DX009 (ip), vehicle: Klucel (hydroxypropylcellulose) (HPC)
[6] = T/C endpoint: mean survival time, dose: 400.0 mg/kg/injection, schedule: Q04DX003 (ip), vehicle: Klucel (hydroxypropylcellulose) (HPC)

SMILES: C[n+]1c2ccccc2c(Nc2ccc(NS(=O)(=O)CCCCN=C(N)N)cc2)c2ccc(N)cc21
- T/C (T/C endpoint: mean survival time, dose: 0.25 mg/kg/injection, schedule: Q03HX008 (ip), vehicle: water): 126 % of control
- T/C (T/C endpoint: mean survival time, dose: 0.75 mg/kg/injection, schedule: Q01DX009 (ip), vehicle: water, evaluated on day 30): 144 % of control
- T/C (T/C endpoint: mean survival time, dose: 0.75 mg/kg/injection, schedule: Q01DX009 (ip), vehicle: water, evaluated on day 60): 134 % of control [9 of 10 alive]
- T/C (T/C endpoint: mean survival time, dose: 1.0 mg/kg/injection, schedule: Q03HX008 (ip), vehicle: water): 134 % of control
- T/C (T/C endpoint: mean survival time, dose: 1.5 mg/kg/injection, schedule: Q01DX009 (ip), vehicle: water): 141 % of control
- T/C (T/C endpoint: mean survival time, dose: 3.12 mg/kg/injection, schedule: Q01DX001 (ip), vehicle: water): 128 % of control
- T/C (T/C endpoint: mean survival time, dose: 6.25 mg/kg/injection, schedule: Q01DX001 (ip), vehicle: water): 128 % of control
- survivor count (T/C endpoint: mean survival time, dose: 50.0 mg/kg/injection, schedule: Q01DX001 (ip), vehicle: water): 4 of 10
- survivor count (T/C endpoint: mean survival time, dose: 50.0 mg/kg/injection, schedule: Q04DX003 (ip), vehicle: water): 0 of 10 and 0 of 6
- survivor count (T/C endpoint: mean survival time, dose: 100.0 mg/kg/injection, schedule: Q04DX003 (ip), vehicle: saline with Tween-80): 2 of 6
- survivor count [1]: 0 of 6
- survivor count (T/C endpoint: mean survival time, dose: 400.0 mg/kg/injection, schedule: Q04DX003 (ip), vehicle: saline with Tween-80): 0 of 6
- T/C (T/C endpoint: median survival time, dose: 3.0 mg/kg/injection, schedule: Q01DX009 (sc), vehicle: water): 140 % of control
- survivor count (T/C endpoint: median survival time, dose: 24.0 mg/kg/injection, schedule: Q01DX009 (sc), vehicle: water): 9 of 10

SMILES: CNC(=O)Nc1cccc(C(F)(F)F)c1
- survivor count [2]: 6 of 6

SMILES: O=NN(CCCl)C(=O)Nc1ccc(CCO)cc1
- survivor count (T/C endpoint: mean survival time, dose: 37.5 mg/kg/injection, schedule: Q01DX009 (ip), vehicle: acetone): 0 of 6
- survivor count (T/C endpoint: mean survival time, dose: 75.0 mg/kg/injection, schedule: Q01DX009 (ip), vehicle: acetone): 0 of 6
- survivor count (T/C endpoint: mean survival time, dose: 150.0 mg/kg/injection, schedule: Q01DX009 (ip), vehicle: acetone): 0 of 6
- survivor count (T/C endpoint: mean survival time, dose: 300.0 mg/kg/injection, schedule: Q01DX009 (ip), vehicle: acetone): 0 of 6
- survivor count (T/C endpoint: mean survival time, dose: 600.0 mg/kg/injection, schedule: Q01DX009 (ip), vehicle: acetone): 0 of 6

SMILES: CC1(C)N=C(N)N=C(N)N1c1ccc(CCC(=O)Nc2ccc(S(=O)(=O)F)cc2)cc1
- T/C (T/C endpoint: mean survival time, dose: 20.0 mg/kg/injection, schedule: Q01DX009 (ip), vehicle: acetone): 140 % of control
- T/C (T/C endpoint: mean survival time, dose: 30.0 mg/kg/injection, schedule: Q01DX009 (ip), vehicle: acetone): 148 % of control
- T/C [3]: 132 [5 of 6 alive] and 139 % of control
- T/C (T/C endpoint: mean survival time, dose: 150.0 mg/kg/injection, schedule: Q## X003 (ip), vehicle: saline): 136 % of control
- T/C (T/C endpoint: mean survival time, dose: 300.0 mg/kg/injection, schedule: Q## X003 (ip), vehicle: saline): 137 % of control
- survivor count (T/C endpoint: mean survival time, dose: 400.0 mg/kg/injection, schedule: Q01DX009 (ip), vehicle: saline): 4 of 6
- survivor count (T/C endpoint: mean survival time, dose: 500.0 mg/kg/injection, schedule: Q01DX009 (ip), vehicle: saline): 6 of 6
- survivor count (T/C endpoint: mean survival time, dose: 900.0 mg/kg/injection, schedule: Q## X003 (ip), vehicle: saline): 1 of 6

SMILES: CC1(C)OCC(C2OC(c3ccccc3)OC(CO)C2O)O1 (stereo not given)
- survivor count (T/C endpoint: mean survival time, dose: 50.0 mg/kg/injection, schedule: Q04DX002 (ip), vehicle: saline with Tween-80): 0 of 3
- survivor count (T/C endpoint: mean survival time, dose: 100.0 mg/kg/injection, schedule: Q04DX002 (ip), vehicle: saline with Tween-80): 0 of 3
- survivor count (T/C endpoint: mean survival time, dose: 200.0 mg/kg/injection, schedule: Q04DX002 (ip), vehicle: saline with Tween-80): 0 of 3

SMILES: O=c1[nH]c2cccnc2c(=O)n1O
- survivor count (T/C endpoint: mean survival time, dose: 87.5 mg/kg/injection, schedule: Q04DX003 (ip), vehicle: carboxymethylcellulose (CMC)): 2 of 6

SMILES: CCCCOP(=O)(N1CC1(C)C)N1CC1(C)C (stereo not given)
- survivor count (T/C endpoint: mean survival time, dose: 100.0 mg/kg/injection, schedule: Q04DX002 (ip), vehicle: saline): 1 of 3
- survivor count (T/C endpoint: mean survival time, dose: 200.0 mg/kg/injection, schedule: Q04DX002 (ip), vehicle: saline): 0 of 3
- survivor count (T/C endpoint: mean survival time, dose: 400.0 mg/kg/injection, schedule: Q04DX002 (ip), vehicle: saline): 0 of 3

SMILES: C/C(CSc1ncnc2nc[nH]c12)=N\NC(N)=S
- survivor count [1]: 0 of 6

SMILES: CCOc1ccc(Br)cc1
- survivor count [4]: 1 of 3 and 6 of 6

SMILES: Clc1ccc(Cl)c(NNc2cc(Cl)ccc2Cl)c1
- survivor count [5]: 6 of 6
- survivor count [2]: 0 of 6
- survivor count [6]: 4 of 6

SMILES: CCOC(=O)c1ccc(NC(=O)Nc2ccc(Cl)cc2[N+](=O)[O-])cc1
- survivor count [5]: 6 of 6

SMILES: Cc1c(C)c([N+](=O)[O-])c(/C=C/C(=O)O)c(C)c1[N+](=O)[O-]
- survivor count [6]: 6 of 6

SMILES: CC(=O)Oc1cccc(C)c1
- survivor count [4]: 0 of 6

SMILES: C1CCN(CN2CCCC2)C1
- survivor count [3]: 4 of 6
- survivor count (T/C endpoint: mean survival time, dose: 200.0 mg/kg/injection, schedule: Q01DX001 (ip), vehicle: saline): 1 of 6
- survivor count (T/C endpoint: mean survival time, dose: 400.0 mg/kg/injection, schedule: Q01DX001 (ip), vehicle: saline): 0 of 6

SMILES: N#CC12OC1(C#N)C(=O)c1ccccc1C2=O (stereo not given)
- survivor count (T/C endpoint: mean survival time, dose: 150.0 mg/kg/injection, schedule: Q01DX001 (ip), vehicle: Klucel (hydroxypropylcellulose) (HPC)): 0 of 6
- survivor count (T/C endpoint: mean survival time, dose: 300.0 mg/kg/injection, schedule: Q01DX001 (ip), vehicle: Klucel (hydroxypropylcellulose) (HPC)): 0 of 6

SMILES: O=NN(CCCl)C(=O)Nc1ccc2c(c1)OCO2
- T/C (T/C endpoint: mean survival time, dose: 1.5 mg/kg/injection, schedule: Q01DX009 (ip), vehicle: other): 144 % of control
- T/C (T/C endpoint: mean survival time, dose: 2.5 mg/kg/injection, schedule: Q01DX009 (ip), vehicle: other): 144 % of control
- T/C (T/C endpoint: mean survival time, dose: 13.0 mg/kg/injection, schedule: Q01DX001 (ip), vehicle: other): 139 % of control
- T/C (T/C endpoint: mean survival time, dose: 14.0 mg/kg/injection, schedule: Q01DX009 (ip), vehicle: carboxymethylcellulose (CMC)): 129 % of control
- T/C (T/C endpoint: mean survival time, dose: 33.0 mg/kg/injection, schedule: Q01DX009 (ip), vehicle: carboxymethylcellulose (CMC)): 138 % of control
- T/C (T/C endpoint: mean survival time, dose: 44.0 mg/kg/injection, schedule: Q01DX001 (ip), vehicle: other): 141 % of control
- T/C (T/C endpoint: mean survival time, dose: 50.0 mg/kg/injection, schedule: Q01DX009 (ip), vehicle: carboxymethylcellulose (CMC)): 142 % of control
- survivor count (T/C endpoint: mean survival time, dose: 58.0 mg/kg/injection, schedule: Q01DX015 (ip), vehicle: saline): 6 of 6
- survivor count (T/C endpoint: mean survival time, dose: 66.0 mg/kg/injection, schedule: Q01DX009 (ip), vehicle: other): 6 of 6
- survivor count (T/C endpoint: mean survival time, dose: 88.0 mg/kg/injection, schedule: Q01DX015 (ip), vehicle: saline): 6 of 6
- survivor count (T/C endpoint: mean survival time, dose: 100.0 mg/kg/injection, schedule: Q01DX009 (ip), vehicle: other): 3 of 6
- T/C (T/C endpoint: mean survival time, dose: 133.0 mg/kg/injection, schedule: Q01DX001 (ip), vehicle: saline): 142 % of control
- survivor count (T/C endpoint: mean survival time, dose: 133.0 mg/kg/injection, schedule: Q01DX015 (ip), vehicle: carboxymethylcellulose (CMC)): 5 of 6
- T/C (T/C endpoint: mean survival time, dose: 200.0 mg/kg/injection, schedule: Q01DX001 (ip), vehicle: carboxymethylcellulose (CMC)): 147 % of control
- survivor count (T/C endpoint: mean survival time, dose: 200.0 mg/kg/injection, schedule: Q01DX015 (ip), vehicle: carboxymethylcellulose (CMC)): 0 of 6
- T/C (T/C endpoint: mean survival time, dose: 300.0 mg/kg/injection, schedule: Q01DX001 (ip), vehicle: carboxymethylcellulose (CMC)): 143 % of control
- T/C (T/C endpoint: mean survival time, dose: 400.0 mg/kg/injection, schedule: Q01DX001 (ip), vehicle: carboxymethylcellulose (CMC)): 133 % of control
